Laboratory results reported in patent US20220380484A1 (MONASH UNIVERSITY, published 2022).
Results are given in words; binding and its absence hold for the method and conditions named. Some binding calls cover weakened binding; strength is not graded here.

Chains of the proteins cited; added tags and fusions are not shown. Lines headed by an entry give the natural chain unless they say otherwise; changes in a name come on top.
UniProt P00747: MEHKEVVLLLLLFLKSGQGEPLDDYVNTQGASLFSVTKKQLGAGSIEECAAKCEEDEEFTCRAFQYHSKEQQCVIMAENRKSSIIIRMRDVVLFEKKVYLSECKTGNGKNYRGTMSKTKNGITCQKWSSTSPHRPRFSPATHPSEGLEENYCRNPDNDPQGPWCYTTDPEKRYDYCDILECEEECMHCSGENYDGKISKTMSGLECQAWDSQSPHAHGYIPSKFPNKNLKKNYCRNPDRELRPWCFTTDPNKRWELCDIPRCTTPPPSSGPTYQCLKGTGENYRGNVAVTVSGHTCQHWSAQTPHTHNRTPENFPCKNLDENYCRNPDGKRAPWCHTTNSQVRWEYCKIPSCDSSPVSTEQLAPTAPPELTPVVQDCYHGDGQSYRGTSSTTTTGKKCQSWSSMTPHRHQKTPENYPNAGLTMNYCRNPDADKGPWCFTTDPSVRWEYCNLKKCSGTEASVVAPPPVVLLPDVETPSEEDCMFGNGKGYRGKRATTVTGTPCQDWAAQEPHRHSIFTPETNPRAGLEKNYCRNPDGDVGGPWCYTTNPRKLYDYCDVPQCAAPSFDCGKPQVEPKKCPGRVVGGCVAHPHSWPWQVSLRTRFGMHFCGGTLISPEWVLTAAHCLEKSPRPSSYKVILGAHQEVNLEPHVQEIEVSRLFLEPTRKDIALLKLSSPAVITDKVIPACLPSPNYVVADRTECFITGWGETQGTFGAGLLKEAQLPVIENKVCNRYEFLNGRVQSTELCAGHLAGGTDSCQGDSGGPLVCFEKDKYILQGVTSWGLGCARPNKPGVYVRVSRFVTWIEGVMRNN

Experiments:
[1] = molecular target: recombinant kringle 5-serine protease domain (KR5-SP) (human) (UniProt P00747); assay: size-exclusion chromatography
plasmin [2] = molecular target: T1, plasmin (human, UniProt P00747 20-580; P00747 581-810); assay: SPR, multi-cycle; G05 immobilised on the chip, plasmin injected as analyte
T1 construct: Bought plasmin (Haematologic Technologies) is named in the activity assay; also called Plm; PLM

[3] = molecular target: recombinant kringle 5-serine protease domain (KR5-SP) (human) (UniProt P00747); assay: size-exclusion chromatography, Superdex 200 16/60
plasmin [4] = molecular target: T1, plasmin; assay: SPR (Biacore T200), antibody immobilised; FIG. 1
plasmin [5] = molecular target: T1, plasmin; assay: SPR, multi-cycle; G05 immobilised, plasmin injected; 1:1 Langmuir fit
[6] = molecular target: recombinant kringle 5-serine protease domain (KR5-SP) (human) (UniProt P00747); assay: X-ray crystal structure
[7] = molecular target: recombinant kringle 5-serine protease domain (KR5-SP) (human) (UniProt P00747); assay: X-ray crystal structure of the scFv fragment of G05 with KR5-SP
[8] = molecular target: recombinant kringle 5-serine protease domain (KR5-SP) (human) (UniProt P00747); assay: X-ray crystal structure, 2.0 Å

Measured: binding

B1: G05 antibody (scFv, V domains shown)
VH: AVTLDESGGGLQTPGRALSLVCKASGFTFSSYAMHWVRQAPGKGLEFVAGIDNIGSYTRYGAAVKGRVTISRDNGQSIVRLQLDNLRAEDTGTYYCAKSAYGGSCCGPAYIDAWGHGTEVIVSS
VL: QAALTQPSSVSANPGETVEITCSGGGRSSYYGWYQQKSPGSAPVTLIYDNTNRPSNIPSRFSGSKSGSTATLTITGVQGEDEAVYFCGSADSSTTGIFGAGTTLTVL
notes: Chicken antibody from an scFv library (VH and VL joined by a flexible linker); also called scFv fragment of G05
binds: [1] | plasmin [2] | [3] | plasmin [4] | plasmin [5] | [6] | [7] | [8]
